This note sets out measurements from the supplement of paper PMC10849652.

By UniProt entry, the sequences of proteins in these tests, tags left out. Where a name states a change or a piece, a line headed by the entry shows the natural chain unless it says otherwise.
UniProt Q8IZ52: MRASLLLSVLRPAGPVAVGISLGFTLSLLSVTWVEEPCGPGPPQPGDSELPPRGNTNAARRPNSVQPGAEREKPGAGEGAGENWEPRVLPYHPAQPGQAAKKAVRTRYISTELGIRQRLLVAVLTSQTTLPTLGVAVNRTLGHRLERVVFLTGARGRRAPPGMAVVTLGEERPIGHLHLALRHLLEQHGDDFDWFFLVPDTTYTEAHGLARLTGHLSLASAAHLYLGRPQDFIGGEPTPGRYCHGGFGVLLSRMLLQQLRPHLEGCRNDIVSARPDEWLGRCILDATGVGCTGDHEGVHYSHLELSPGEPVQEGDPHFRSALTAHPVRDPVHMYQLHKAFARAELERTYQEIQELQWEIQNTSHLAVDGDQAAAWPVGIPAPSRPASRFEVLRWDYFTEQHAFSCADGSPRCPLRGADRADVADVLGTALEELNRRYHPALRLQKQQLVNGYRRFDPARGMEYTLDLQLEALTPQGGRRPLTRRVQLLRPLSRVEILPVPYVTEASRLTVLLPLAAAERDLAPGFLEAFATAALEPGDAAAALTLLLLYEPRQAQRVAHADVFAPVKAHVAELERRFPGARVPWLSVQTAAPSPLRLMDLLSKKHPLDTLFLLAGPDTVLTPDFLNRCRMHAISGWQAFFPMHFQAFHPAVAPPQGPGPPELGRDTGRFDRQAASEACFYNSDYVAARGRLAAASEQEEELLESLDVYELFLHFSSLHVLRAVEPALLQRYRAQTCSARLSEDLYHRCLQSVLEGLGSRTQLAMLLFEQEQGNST
UniProt Q9UBR5: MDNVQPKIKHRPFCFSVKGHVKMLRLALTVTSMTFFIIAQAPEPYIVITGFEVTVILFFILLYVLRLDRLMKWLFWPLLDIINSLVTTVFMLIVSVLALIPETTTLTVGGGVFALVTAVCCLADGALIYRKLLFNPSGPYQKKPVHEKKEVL
UniProt O94985: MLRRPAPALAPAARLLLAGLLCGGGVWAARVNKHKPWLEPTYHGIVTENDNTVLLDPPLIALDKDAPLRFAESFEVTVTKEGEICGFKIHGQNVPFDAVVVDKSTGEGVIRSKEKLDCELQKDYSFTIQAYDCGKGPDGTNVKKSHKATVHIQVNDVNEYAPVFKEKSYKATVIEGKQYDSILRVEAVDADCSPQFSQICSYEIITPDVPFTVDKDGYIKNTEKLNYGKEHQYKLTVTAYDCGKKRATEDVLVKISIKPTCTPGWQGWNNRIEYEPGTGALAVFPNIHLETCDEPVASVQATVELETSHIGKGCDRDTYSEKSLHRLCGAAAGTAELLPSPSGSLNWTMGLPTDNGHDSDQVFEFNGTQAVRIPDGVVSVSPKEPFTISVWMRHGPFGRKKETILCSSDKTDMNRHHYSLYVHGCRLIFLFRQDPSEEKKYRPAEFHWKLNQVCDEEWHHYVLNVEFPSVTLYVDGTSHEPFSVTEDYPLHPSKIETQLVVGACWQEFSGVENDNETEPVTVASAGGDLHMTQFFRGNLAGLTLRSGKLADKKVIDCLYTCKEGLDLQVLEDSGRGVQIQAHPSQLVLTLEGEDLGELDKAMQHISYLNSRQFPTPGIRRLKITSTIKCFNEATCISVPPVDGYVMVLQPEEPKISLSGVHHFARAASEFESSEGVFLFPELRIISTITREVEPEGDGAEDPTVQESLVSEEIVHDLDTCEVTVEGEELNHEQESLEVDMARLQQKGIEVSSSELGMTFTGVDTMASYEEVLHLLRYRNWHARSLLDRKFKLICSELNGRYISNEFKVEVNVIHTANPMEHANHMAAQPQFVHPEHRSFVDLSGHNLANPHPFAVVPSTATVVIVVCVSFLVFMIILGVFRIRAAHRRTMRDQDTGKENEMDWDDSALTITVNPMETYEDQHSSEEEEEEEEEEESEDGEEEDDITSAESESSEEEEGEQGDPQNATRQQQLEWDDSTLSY
UniProt Q86X95: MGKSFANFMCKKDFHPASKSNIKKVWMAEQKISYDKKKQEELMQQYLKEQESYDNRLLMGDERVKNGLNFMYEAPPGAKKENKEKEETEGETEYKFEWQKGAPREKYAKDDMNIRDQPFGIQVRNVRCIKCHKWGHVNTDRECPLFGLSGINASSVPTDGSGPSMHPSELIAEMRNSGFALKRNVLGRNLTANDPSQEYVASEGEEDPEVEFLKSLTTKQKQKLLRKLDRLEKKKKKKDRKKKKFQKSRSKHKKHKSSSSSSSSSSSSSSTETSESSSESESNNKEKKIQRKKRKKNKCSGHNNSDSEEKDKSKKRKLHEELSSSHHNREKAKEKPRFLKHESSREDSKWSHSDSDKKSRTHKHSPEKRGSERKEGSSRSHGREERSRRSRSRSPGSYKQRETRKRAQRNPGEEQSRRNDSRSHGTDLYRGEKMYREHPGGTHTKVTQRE
UniProt Q8IYA6: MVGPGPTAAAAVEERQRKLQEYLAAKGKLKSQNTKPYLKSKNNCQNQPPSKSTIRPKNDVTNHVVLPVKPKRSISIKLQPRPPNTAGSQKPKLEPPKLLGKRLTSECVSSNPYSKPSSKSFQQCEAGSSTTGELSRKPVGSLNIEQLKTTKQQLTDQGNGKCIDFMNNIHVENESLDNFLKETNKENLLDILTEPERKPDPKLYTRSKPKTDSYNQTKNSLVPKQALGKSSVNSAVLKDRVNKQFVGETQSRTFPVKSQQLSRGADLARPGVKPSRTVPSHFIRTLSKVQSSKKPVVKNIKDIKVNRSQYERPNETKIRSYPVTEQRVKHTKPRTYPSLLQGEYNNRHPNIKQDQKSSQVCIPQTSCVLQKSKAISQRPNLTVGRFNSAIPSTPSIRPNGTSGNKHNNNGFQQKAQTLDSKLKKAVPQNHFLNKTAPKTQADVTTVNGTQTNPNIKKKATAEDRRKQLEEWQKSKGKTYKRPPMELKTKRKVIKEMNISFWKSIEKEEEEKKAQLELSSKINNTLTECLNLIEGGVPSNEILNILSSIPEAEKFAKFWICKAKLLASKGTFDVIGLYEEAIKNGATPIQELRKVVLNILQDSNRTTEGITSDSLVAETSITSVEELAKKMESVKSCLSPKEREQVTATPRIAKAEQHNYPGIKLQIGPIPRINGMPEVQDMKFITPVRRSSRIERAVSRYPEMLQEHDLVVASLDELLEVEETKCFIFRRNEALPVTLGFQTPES
UniProt P49760, whole entry, looked up: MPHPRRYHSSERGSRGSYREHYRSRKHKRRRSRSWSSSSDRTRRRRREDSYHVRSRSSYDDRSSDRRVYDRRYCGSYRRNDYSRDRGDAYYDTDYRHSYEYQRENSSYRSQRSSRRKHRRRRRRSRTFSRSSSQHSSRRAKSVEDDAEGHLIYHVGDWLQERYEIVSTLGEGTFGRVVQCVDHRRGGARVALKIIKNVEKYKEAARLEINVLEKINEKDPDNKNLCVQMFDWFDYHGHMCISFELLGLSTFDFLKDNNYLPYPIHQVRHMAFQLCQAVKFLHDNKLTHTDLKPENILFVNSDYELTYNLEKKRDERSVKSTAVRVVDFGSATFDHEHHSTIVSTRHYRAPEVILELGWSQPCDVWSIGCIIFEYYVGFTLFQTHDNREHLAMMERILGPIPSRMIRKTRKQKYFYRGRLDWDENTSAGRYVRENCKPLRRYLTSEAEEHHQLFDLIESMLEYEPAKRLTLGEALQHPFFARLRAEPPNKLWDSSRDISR
UniProt P33552, whole entry, looked up: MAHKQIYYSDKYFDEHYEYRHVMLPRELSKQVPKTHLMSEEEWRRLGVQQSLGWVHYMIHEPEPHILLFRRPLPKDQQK
UniProt Q9UDT6: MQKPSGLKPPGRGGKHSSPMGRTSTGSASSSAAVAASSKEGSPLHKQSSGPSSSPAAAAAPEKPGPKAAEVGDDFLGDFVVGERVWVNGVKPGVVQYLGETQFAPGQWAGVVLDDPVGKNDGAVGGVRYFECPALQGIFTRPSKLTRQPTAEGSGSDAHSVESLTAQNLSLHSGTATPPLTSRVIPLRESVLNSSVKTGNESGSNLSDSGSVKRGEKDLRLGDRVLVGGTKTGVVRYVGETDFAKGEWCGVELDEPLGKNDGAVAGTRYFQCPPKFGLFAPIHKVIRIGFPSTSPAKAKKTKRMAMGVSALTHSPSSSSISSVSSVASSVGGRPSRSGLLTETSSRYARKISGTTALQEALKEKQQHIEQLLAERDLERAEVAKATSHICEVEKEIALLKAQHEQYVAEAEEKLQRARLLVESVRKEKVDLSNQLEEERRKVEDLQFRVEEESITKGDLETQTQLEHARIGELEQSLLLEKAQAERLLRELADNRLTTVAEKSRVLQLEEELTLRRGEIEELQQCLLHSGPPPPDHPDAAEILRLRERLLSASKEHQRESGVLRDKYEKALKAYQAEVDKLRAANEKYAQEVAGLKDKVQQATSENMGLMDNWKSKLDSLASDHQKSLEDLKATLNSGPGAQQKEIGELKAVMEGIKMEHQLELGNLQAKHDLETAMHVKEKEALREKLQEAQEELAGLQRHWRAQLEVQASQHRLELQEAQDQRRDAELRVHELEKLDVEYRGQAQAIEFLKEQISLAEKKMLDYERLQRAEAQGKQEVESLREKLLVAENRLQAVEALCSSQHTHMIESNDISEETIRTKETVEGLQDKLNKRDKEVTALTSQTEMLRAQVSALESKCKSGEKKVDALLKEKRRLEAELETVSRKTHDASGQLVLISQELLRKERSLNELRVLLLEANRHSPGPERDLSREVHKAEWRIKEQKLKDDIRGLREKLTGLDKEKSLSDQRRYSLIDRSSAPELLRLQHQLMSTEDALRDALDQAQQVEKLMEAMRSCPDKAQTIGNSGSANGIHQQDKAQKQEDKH
UniProt Q5VXU3: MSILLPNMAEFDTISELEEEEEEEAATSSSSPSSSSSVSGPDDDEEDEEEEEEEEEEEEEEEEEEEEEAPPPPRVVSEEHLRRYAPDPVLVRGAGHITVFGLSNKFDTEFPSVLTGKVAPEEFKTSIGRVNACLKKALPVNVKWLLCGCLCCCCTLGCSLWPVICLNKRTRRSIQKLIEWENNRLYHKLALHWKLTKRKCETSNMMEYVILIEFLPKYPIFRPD
UniProt Q9NSE2: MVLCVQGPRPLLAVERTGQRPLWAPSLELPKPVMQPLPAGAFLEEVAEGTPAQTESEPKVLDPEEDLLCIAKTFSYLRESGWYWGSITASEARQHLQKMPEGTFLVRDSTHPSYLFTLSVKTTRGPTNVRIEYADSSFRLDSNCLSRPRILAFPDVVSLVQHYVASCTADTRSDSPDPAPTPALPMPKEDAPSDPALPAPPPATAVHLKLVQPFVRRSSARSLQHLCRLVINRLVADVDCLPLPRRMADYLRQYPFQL

Holding throughout (test): log2 fold change, soluble protein after heating vs DMSO (PISA); higher = thermal stabilisation; K562 lysate, 10 uM; active = over 0.2 and 3.5 SD of the protein, either way, in both replicates (recomputed)
Compound in test [1]: C1=CC=C(C=C1)[C@H](COC2=CC3=C(C=C2)NC(=O)N3)NC(=O)C4=CC=CN(C4=O)CC5=CC(=C(C=C5)F)F
Summed up:
(§1)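 To prepare the extract, K562 pellets were dounce-homogenised in PBS pH 7.4 with 1 mM MgCl2, giving crude material at 1 mg/mL protein. This was treated with 10 μM compound for 30 min, then heated in aliquots for 3 min over 48°C-58°C before pooling and addition of NP-40 to 0.5% at 4°C. Centrifugation at 21,000xg for 90 min left soluble protein in the supernatant, which TMTpro 16plex LC-MS/MS quantified with equalised channel sums. Results are log-two fold changes in thermal stability compared with solvent controls, from duplicates.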

Compound in test [2]: CC1=C(SC2=C1C(=N[C@H](C3=NN=C(N32)C)CC(=O)N)C4=CC=C(C=C4)Cl)C
In a few lines:
as §1

Compound in test [3]: Cc1sc2c(c1C)C(c1ccc(Cl)cc1)=N[C@@H](CC(=O)OC(C)(C)C)c1nnc(C)n1-2
In a few lines:
as §1

Compound in test [4]: c1ccc([C@@H]2C[C@H]2NC2CCNCC2)cc1
Summed up:
as §1

Compound in test [5]: CC1=C2C(=CC=C1)N=C(N(C2=O)C3=CC=CC=C3C)CN4C=NC5=C(N=CN=C54)N
Summed up: as §1

Some of the results follow.

Take CHPF (UniProt Q8IZ52): the log2 fold change in test [1] was inactive: -0.064; in test [2], inactive: -0.015; in test [3], inactive: -0.133; in test [4], inactive: -0.089.

Consider CKLF (UniProt Q9UBR5), for which the values for the log2 fold change in test [3] and in test [4] were inactive: 0.241 and inactive: -0.008, respectively.

For CLSTN1 (UniProt O94985), the log2 fold change in test [4] was inactive: -0.297.

Turning to CHD9 (UniProt Q3L8U1), the results for the log2 fold change in test [5], in test [3] and in test [4] were inactive: -0.074, inactive: 0.236 and inactive: 0.232, respectively.

For the target CIR1 (UniProt Q86X95), in test [3], the log2 fold change was inactive: -0.107.

Take CKAP2L (UniProt Q8IYA6): the log2 fold change was inactive: 0.003 in test [5], inactive: 0.068 in test [3] and inactive: -0.102 in test [4].

As to CHURC1-FNTB (UniProt B4DL54), the log2 fold change in test [4] was inactive: -0.133.

As to CLK2 (UniProt P49760), in test [3], the log2 fold change was inactive: 0.108.

On to CKS2 (UniProt P33552), for which the figures for the log2 fold change in test [5] and in test [4] were inactive: -0.135 and inactive: 0.065, respectively.

With CLIP2 (UniProt Q9UDT6), the log2 fold change was inactive: 0.062 in test [1], inactive: 0.18 in test [2], inactive: 0.128 in test [3] and inactive: -0.139 in test [4].

Regarding CHIC1 (UniProt Q5VXU3), the values for the log2 fold change in test [5] and in test [4] were inactive: 0.032 and inactive: 0.042, respectively.

Turning to CISH isoform 3 (UniProt Q9NSE2), in test [5], the log2 fold change was inactive: 0.091.
